Two molecules from PMC6746929 can be followed below.

The test addresses T1, Slitrk3 (Slit and Trk-like family member 3, ST3), wild type, Flag- or Myc-tagged (mouse) (UniProt Q810B9).
T1 sequence: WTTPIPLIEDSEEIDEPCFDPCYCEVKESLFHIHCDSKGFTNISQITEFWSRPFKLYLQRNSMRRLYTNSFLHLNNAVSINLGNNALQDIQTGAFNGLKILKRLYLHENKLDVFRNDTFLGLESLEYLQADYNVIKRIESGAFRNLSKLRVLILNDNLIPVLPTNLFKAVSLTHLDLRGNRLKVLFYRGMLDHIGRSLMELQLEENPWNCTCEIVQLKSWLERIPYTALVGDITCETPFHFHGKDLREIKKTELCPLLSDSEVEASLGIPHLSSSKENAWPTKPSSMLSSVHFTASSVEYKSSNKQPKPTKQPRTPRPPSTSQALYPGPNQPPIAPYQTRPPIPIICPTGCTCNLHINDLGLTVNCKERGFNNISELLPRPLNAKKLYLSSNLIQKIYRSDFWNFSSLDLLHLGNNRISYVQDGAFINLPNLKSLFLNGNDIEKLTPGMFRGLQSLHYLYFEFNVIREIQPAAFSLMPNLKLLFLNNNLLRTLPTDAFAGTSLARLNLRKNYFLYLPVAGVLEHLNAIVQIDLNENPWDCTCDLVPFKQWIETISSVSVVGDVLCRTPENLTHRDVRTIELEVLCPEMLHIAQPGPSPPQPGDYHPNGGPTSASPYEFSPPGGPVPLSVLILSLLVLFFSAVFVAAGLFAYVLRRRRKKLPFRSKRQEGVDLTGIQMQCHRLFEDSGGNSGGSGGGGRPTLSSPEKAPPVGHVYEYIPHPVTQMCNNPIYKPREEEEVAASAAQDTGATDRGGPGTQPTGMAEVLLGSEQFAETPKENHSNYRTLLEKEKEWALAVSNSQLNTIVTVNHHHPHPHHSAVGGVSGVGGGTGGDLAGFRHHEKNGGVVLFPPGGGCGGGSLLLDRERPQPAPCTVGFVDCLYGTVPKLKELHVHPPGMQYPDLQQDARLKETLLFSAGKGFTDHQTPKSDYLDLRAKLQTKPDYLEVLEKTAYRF
Nature of the test: co-IP; HEK293T cells co-transfected with Flag-ST3 and Myc-ST3 or Myc-ST3 ΔCT for 48 h; lysis buffer 25 mM Tris pH 7.4, 1% Triton X-100, 150 mM NaCl, 5% glycerol, 1 mM EDTA; lysates incubated with anti-Flag M2 affinity gel overnight at 4°C; blot with anti-Myc and anti-Flag.

These are yes or no findings as the source states them, for the method shown. Binding seen in cells or lysates may run through a third protein. Some entries that bind do so weakly or less than the wild type. Where a sequence is shown, tags or fusion partners need not be part of it.

B1: Slitrk3 (Slit and Trk-like family member 3, ST3), wild type, Flag- or Myc-tagged (protein, UniProt Q810B9 28-980)
chain: WTTPIPLIEDSEEIDEPCFDPCYCEVKESLFHIHCDSKGFTNISQITEFWSRPFKLYLQRNSMRRLYTNSFLHLNNAVSINLGNNALQDIQTGAFNGLKILKRLYLHENKLDVFRNDTFLGLESLEYLQADYNVIKRIESGAFRNLSKLRVLILNDNLIPVLPTNLFKAVSLTHLDLRGNRLKVLFYRGMLDHIGRSLMELQLEENPWNCTCEIVQLKSWLERIPYTALVGDITCETPFHFHGKDLREIKKTELCPLLSDSEVEASLGIPHLSSSKENAWPTKPSSMLSSVHFTASSVEYKSSNKQPKPTKQPRTPRPPSTSQALYPGPNQPPIAPYQTRPPIPIICPTGCTCNLHINDLGLTVNCKERGFNNISELLPRPLNAKKLYLSSNLIQKIYRSDFWNFSSLDLLHLGNNRISYVQDGAFINLPNLKSLFLNGNDIEKLTPGMFRGLQSLHYLYFEFNVIREIQPAAFSLMPNLKLLFLNNNLLRTLPTDAFAGTSLARLNLRKNYFLYLPVAGVLEHLNAIVQIDLNENPWDCTCDLVPFKQWIETISSVSVVGDVLCRTPENLTHRDVRTIELEVLCPEMLHIAQPGPSPPQPGDYHPNGGPTSASPYEFSPPGGPVPLSVLILSLLVLFFSAVFVAAGLFAYVLRRRRKKLPFRSKRQEGVDLTGIQMQCHRLFEDSGGNSGGSGGGGRPTLSSPEKAPPVGHVYEYIPHPVTQMCNNPIYKPREEEEVAASAAQDTGATDRGGPGTQPTGMAEVLLGSEQFAETPKENHSNYRTLLEKEKEWALAVSNSQLNTIVTVNHHHPHPHHSAVGGVSGVGGGTGGDLAGFRHHEKNGGVVLFPPGGGCGGGSLLLDRERPQPAPCTVGFVDCLYGTVPKLKELHVHPPGMQYPDLQQDARLKETLLFSAGKGFTDHQTPKSDYLDLRAKLQTKPDYLEVLEKTAYRF
In the case of B1, the binding entry is “binds”.

B2: Myc tagged ST3 C-terminal deletion mutant (Myc-ST3 ΔCT) (domain or fragment, UniProt Q810B9 28-680)
chain: WTTPIPLIEDSEEIDEPCFDPCYCEVKESLFHIHCDSKGFTNISQITEFWSRPFKLYLQRNSMRRLYTNSFLHLNNAVSINLGNNALQDIQTGAFNGLKILKRLYLHENKLDVFRNDTFLGLESLEYLQADYNVIKRIESGAFRNLSKLRVLILNDNLIPVLPTNLFKAVSLTHLDLRGNRLKVLFYRGMLDHIGRSLMELQLEENPWNCTCEIVQLKSWLERIPYTALVGDITCETPFHFHGKDLREIKKTELCPLLSDSEVEASLGIPHLSSSKENAWPTKPSSMLSSVHFTASSVEYKSSNKQPKPTKQPRTPRPPSTSQALYPGPNQPPIAPYQTRPPIPIICPTGCTCNLHINDLGLTVNCKERGFNNISELLPRPLNAKKLYLSSNLIQKIYRSDFWNFSSLDLLHLGNNRISYVQDGAFINLPNLKSLFLNGNDIEKLTPGMFRGLQSLHYLYFEFNVIREIQPAAFSLMPNLKLLFLNNNLLRTLPTDAFAGTSLARLNLRKNYFLYLPVAGVLEHLNAIVQIDLNENPWDCTCDLVPFKQWIETISSVSVVGDVLCRTPENLTHRDVRTIELEVLCPEMLHIAQPGPSPPQPGDYHPNGGPTSASPYEFSPPGGPVPLSVLILSLLVLFFSAVFVAAGLFAYVL
Take B2: the binding entry is on record as “binds”.
